Data from the supplement of paper PMC12823440, “Inhibitors supercharge kinase turnover through native proteolytic circuits” (Nature, 2025).
This is one part of the list. Hit calls seldom repeat between salt and free forms of one compound.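 In K562 cells expressing nanoluciferase-fused kinases, luminescence was recorded at 4 h intervals between 2 and 18 h, normalized as percent of control with DMSO at 100% and a positive control at 0%. A significant (2 sigma) signal drop marks a time point as decreased. The authors' rule for a hit is not shown and takes in more than the number of time points.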

Amino acid sequences for entries named in this document (tags omitted). A change or cut given only in a name is not applied to a line headed by its entry.
UniProt P00519, whole entry: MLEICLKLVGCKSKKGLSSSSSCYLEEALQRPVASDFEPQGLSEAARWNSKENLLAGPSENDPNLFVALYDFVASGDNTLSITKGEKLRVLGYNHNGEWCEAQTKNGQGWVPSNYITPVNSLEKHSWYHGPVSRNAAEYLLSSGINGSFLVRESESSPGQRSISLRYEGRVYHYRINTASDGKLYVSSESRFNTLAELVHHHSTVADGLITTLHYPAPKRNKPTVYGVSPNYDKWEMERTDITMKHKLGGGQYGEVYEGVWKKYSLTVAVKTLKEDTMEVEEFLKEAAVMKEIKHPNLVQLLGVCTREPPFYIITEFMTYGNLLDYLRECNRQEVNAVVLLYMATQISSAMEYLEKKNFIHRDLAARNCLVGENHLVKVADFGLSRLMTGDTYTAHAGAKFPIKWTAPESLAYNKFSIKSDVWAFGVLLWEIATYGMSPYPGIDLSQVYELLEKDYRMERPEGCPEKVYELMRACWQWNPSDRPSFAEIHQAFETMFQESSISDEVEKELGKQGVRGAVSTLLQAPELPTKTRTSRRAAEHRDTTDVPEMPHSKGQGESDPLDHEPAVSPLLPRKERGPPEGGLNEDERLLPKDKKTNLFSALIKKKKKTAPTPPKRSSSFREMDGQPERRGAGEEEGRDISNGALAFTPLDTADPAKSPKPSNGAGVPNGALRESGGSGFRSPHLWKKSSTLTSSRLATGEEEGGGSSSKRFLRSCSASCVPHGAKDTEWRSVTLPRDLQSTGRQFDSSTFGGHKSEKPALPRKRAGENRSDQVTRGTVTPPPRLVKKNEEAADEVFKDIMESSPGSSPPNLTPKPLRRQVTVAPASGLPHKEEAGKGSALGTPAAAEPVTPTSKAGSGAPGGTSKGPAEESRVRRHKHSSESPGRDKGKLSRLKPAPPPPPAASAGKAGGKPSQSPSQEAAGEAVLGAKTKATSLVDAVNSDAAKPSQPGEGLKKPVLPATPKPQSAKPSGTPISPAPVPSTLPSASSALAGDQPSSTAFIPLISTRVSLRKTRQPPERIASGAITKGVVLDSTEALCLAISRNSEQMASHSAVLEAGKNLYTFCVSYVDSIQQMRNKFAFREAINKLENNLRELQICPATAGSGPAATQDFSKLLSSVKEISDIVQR
UniProt P10398: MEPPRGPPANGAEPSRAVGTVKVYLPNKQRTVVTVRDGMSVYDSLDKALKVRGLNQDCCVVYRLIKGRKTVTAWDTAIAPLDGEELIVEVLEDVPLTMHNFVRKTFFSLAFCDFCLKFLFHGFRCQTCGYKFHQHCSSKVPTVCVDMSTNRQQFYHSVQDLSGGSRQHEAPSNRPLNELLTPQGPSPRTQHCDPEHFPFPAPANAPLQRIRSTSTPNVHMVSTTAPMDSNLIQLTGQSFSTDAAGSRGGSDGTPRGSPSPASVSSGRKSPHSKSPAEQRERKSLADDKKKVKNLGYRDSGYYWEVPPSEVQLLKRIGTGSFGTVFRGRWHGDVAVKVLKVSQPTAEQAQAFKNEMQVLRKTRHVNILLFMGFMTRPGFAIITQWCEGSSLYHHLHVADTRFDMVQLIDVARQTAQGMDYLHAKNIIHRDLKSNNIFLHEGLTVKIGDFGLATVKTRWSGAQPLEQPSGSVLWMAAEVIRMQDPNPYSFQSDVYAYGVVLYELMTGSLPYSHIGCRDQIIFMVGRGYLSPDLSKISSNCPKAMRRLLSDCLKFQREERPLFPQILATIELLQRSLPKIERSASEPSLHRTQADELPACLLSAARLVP
UniProt O14965: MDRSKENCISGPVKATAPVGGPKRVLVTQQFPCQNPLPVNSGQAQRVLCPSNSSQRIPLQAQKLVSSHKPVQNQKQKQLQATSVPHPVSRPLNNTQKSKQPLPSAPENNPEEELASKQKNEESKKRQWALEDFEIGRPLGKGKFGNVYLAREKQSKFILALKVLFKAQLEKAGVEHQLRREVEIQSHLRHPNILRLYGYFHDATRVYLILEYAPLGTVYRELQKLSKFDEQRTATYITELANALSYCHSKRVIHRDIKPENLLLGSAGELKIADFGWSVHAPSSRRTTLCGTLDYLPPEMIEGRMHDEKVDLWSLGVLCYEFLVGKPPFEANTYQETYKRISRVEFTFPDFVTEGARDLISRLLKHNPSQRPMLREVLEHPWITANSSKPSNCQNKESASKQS
UniProt Q96GD4, whole entry: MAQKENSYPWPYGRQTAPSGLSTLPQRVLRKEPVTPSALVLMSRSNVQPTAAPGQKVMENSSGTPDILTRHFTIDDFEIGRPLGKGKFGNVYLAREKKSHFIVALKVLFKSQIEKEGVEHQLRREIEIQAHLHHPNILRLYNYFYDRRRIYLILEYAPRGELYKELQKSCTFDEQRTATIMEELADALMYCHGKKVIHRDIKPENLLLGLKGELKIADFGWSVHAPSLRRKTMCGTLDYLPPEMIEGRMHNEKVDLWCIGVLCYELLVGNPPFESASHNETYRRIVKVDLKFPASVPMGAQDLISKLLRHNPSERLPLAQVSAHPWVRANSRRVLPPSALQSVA
UniProt Q9UQB9: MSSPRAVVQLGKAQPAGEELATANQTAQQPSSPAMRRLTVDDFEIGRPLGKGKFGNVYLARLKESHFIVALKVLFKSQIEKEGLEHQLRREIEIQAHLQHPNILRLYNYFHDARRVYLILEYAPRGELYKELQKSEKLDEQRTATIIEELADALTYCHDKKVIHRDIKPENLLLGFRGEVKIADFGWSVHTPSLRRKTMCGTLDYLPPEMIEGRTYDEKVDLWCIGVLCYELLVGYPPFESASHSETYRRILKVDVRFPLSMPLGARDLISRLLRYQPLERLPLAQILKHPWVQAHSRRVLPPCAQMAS
UniProt P51451: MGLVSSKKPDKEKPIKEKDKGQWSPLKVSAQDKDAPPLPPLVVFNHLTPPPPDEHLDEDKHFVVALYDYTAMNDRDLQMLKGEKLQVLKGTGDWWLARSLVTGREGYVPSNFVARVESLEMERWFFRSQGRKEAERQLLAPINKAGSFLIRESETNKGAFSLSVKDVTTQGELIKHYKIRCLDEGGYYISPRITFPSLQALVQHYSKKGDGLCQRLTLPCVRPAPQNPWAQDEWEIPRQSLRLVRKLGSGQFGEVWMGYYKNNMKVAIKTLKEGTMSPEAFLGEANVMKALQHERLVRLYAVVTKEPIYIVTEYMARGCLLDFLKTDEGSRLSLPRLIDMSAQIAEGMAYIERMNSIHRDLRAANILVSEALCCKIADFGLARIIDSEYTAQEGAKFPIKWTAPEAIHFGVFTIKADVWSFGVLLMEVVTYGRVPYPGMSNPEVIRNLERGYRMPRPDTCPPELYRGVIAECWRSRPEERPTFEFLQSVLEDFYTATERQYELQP
UniProt P51813: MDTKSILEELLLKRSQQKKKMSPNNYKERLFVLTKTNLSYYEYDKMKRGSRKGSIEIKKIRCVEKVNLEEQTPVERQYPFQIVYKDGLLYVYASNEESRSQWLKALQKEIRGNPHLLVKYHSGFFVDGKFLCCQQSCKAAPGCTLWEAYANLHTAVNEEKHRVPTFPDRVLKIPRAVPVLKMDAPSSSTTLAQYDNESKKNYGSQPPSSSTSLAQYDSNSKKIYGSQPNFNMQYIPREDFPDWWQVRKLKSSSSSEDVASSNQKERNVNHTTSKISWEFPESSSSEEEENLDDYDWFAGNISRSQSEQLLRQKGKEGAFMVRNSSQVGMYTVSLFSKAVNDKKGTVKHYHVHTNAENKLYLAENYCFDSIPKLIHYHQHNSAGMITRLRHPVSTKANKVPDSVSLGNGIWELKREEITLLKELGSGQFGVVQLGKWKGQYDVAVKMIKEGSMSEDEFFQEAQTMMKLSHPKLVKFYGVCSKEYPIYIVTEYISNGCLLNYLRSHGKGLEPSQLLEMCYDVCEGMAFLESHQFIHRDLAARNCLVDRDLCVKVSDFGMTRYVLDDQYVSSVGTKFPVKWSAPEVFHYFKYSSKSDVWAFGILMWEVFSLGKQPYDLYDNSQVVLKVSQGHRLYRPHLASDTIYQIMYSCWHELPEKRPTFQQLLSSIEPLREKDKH
UniProt P15056, whole entry, looked up: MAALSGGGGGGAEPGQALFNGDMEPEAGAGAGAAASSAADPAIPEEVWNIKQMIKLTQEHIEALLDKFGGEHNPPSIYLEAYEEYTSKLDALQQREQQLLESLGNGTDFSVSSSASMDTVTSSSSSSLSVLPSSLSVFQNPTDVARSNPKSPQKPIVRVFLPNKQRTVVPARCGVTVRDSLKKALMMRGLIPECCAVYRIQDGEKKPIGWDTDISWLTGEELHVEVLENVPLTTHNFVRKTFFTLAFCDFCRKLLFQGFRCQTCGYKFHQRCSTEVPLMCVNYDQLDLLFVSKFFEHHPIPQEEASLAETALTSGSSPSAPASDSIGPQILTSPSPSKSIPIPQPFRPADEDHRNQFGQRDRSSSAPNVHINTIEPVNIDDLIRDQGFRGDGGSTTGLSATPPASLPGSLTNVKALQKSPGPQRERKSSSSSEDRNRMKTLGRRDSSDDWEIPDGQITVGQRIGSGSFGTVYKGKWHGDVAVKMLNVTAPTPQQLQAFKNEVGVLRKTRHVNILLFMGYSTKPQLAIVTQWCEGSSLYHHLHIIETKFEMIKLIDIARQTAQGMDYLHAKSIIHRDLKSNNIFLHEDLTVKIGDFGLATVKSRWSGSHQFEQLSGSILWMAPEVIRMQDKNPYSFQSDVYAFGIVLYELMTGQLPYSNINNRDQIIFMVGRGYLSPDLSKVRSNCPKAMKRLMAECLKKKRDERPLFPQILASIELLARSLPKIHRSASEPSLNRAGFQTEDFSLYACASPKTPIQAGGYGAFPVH
UniProt Q9UQM7, whole entry: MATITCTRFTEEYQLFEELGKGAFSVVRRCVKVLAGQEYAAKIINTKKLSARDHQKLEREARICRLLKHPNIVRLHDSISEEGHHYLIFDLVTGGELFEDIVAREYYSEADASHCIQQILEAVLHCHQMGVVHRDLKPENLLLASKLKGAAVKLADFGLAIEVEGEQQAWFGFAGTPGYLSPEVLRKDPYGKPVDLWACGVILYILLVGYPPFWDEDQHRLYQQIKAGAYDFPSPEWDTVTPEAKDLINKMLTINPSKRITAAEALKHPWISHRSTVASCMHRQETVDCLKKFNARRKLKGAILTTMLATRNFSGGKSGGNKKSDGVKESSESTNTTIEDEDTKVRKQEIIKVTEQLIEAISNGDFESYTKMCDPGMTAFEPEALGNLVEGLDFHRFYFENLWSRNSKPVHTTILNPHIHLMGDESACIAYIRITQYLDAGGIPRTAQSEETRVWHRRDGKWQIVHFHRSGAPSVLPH
UniProt Q00526: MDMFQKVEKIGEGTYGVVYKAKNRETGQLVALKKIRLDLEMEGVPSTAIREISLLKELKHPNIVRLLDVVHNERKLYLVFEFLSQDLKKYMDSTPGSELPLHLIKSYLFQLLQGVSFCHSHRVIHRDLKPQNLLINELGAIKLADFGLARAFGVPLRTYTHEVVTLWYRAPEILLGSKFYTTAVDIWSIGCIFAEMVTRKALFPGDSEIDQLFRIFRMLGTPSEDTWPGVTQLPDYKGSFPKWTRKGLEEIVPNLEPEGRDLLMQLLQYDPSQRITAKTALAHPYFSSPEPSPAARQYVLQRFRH
UniProt P11802: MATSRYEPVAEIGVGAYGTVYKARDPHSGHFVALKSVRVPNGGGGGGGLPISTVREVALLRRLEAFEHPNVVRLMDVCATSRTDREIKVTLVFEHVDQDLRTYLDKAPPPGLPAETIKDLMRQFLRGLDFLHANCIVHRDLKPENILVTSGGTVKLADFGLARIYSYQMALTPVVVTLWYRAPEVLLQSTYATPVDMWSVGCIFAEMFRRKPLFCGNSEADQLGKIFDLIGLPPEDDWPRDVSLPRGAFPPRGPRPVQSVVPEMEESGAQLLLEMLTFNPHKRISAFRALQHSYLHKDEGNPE
UniProt Q00535, whole entry, looked up: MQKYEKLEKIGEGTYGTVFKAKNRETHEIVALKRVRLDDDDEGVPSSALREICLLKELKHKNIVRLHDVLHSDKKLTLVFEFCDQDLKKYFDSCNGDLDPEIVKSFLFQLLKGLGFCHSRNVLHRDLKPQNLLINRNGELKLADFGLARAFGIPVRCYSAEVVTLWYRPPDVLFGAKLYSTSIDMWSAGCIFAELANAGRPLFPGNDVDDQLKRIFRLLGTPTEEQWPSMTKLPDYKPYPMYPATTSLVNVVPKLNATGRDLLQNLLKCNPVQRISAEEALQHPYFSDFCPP
UniProt Q00534, whole entry: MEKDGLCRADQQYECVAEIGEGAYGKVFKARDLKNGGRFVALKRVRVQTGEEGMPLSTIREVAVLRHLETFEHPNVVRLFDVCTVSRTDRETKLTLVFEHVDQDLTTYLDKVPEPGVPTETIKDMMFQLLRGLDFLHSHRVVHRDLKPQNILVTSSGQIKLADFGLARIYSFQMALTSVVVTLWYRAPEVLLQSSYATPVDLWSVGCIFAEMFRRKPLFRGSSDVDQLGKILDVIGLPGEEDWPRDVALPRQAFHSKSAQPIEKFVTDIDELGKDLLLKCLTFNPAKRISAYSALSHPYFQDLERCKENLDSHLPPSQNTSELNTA

Key:
Experiment in all cases: kinase-Nluc reporter destabilization hit call (1 = scored as downregulated) (binary); higher = compound decreases kinase abundance
Settings in all cases: K562; 2-18 h
ABL1 = ABL1 (UniProt P00519)
AKT1 = AKT1 (UniProt P31749)
ALK = ALK (UniProt Q9UM73)
ARAF = ARAF (UniProt P10398)
AURKA = AURKA (UniProt O14965)
AURKB = AURKB (UniProt Q96GD4)
AURKC = AURKC (UniProt Q9UQB9)
BLK = BLK (UniProt P51451)
BMX = BMX (UniProt P51813)
BRAF = BRAF (UniProt P15056)
BRAF_V600E = tested on: BRAF_V600E
BTK = BTK (UniProt Q06187)
CAMK2A = CAMK2A (UniProt Q9UQM7)
CAMK2G = CAMK2G (UniProt Q13555)
CDK10 = CDK10 (UniProt Q15131)
CDK2 = CDK2 (UniProt P24941)
CDK3 = CDK3 (UniProt Q00526)
CDK4 = CDK4 (UniProt P11802)
CDK5 = CDK5 (UniProt Q00535)
CDK6 = CDK6 (UniProt Q00534)

Measured: kinase-Nluc reporter destabilization hit call

Cc1c[nH]c2nccc(Oc3c(F)cc(Nc4cc(Cl)nc(N)n4)cc3F)c12 (10 µM)
inactive: ABL1 = 0 | AKT1 = 0 | ALK 0 | ARAF 0 | AURKA 0 | AURKB 0 | AURKC 0 | BLK 0 | BMX 0 | BRAF 0 | BRAF_V600E 0 | BTK 0 | CAMK2A 0 | CAMK2G 0 | CDK10 = 0 | CDK2 = 0 | CDK3 = 0 | CDK4 = 0 | CDK5 = 0 | CDK6 = 0

CN(c1ncccc1CNc1nc(Nc2ccc3c(c2)CC(=O)N3)ncc1C(F)(F)F)S(C)(=O)=O (2.5 µM)
inactive: ABL1 = 0 | AKT1 = 0 | ALK 0 | ARAF 0 | AURKA 0 | AURKB 0 | AURKC 0 | BLK 0 | BMX 0 | BRAF 0 | BRAF_V600E 0 | BTK 0 | CAMK2A 0 | CAMK2G 0 | CDK10 = 0 | CDK2 = 0 | CDK3 = 0 | CDK4 = 0 | CDK5 = 0 | CDK6 = 0

CC(C)(C)n1nc(Cc2cccc3ccccc23)c2c(N)ncnc21 (10 µM)
inactive: ABL1 = 0 | AKT1 = 0 | ALK 0 | ARAF 0 | AURKA 0 | AURKB 0 | AURKC 0 | BLK 0 | BMX 0 | BRAF 0 | BRAF_V600E 0 | BTK 0 | CAMK2A 0 | CAMK2G 0 | CDK10 = 0 | CDK2 = 0 | CDK3 = 0 | CDK4 = 0 | CDK5 = 0 | CDK6 = 0

O=c1c(O)c(-c2ccc(O)c(O)c2)oc2cc(O)cc(O)c12 [Quercetin (dihydrate)] (10 µM)
inactive: ABL1 = 0 | AKT1 = 0 | ALK 0 | ARAF 0 | AURKA 0 | AURKB 0 | AURKC 0 | BLK 0 | BMX 0 | BRAF 0 | BRAF_V600E 0 | BTK 0 | CAMK2A 0 | CAMK2G 0 | CDK10 = 0 | CDK2 = 0 | CDK3 = 0 | CDK4 = 0 | CDK5 = 0 | CDK6 = 0

N#C/C(=C\c1ccc(O)c(O)c1)C(=O)NCCCc1ccccc1 (10 µM)
inactive: ABL1 = 0 | AKT1 = 0 | ALK 0 | ARAF 0 | AURKA 0 | AURKB 0 | AURKC 0 | BLK 0 | BMX 0 | BRAF 0 | BRAF_V600E 0 | BTK 0 | CAMK2A 0 | CAMK2G 0 | CDK10 = 0 | CDK2 = 0 | CDK3 = 0 | CDK4 = 0 | CDK5 = 0 | CDK6 = 0

Cc1cc(N2CCOCC2)cc2[nH]c(-c3c(NC[C@@H](O)c4cccc(Cl)c4)cc[nH]c3=O)nc12 (10 µM)
inactive: ABL1 = 0 | AKT1 = 0 | ALK 0 | ARAF 0 | AURKA 0 | AURKB 0 | AURKC 0 | BLK 0 | BMX 0 | BRAF 0 | BRAF_V600E 0 | BTK 0 | CAMK2A 0 | CAMK2G 0 | CDK10 = 0 | CDK2 = 0 | CDK3 = 0 | CDK4 = 0 | CDK5 = 0 | CDK6 = 0

CN(C)C(=O)/C(C#N)=C/c1ccc(-c2nc3cnc4[nH]ccc4c3n2C2CCCCC2)o1 (10 µM)
inactive: ABL1 = 0 | AKT1 = 0 | ALK 0 | ARAF 0 | AURKA 0 | AURKB 0 | AURKC 0 | BLK 0 | BMX 0 | BRAF 0 | BRAF_V600E 0 | BTK 0 | CAMK2A 0 | CAMK2G 0 | CDK10 = 0 | CDK2 = 0 | CDK3 = 0 | CDK4 = 0 | CDK5 = 0 | CDK6 = 0

CCCCOc1c(C(=O)c2c(F)cc(C)cc2F)c[nH]c2nncc1-2 (10 µM)
inactive: ABL1 = 0 | AKT1 = 0 | ALK 0 | ARAF 0 | AURKA 0 | AURKB 0 | AURKC 0 | BLK 0 | BMX 0 | BRAF 0 | BRAF_V600E 0 | BTK 0 | CAMK2A 0 | CAMK2G 0 | CDK10 = 0 | CDK2 = 0 | CDK3 = 0 | CDK4 = 0 | CDK5 = 0 | CDK6 = 0

CCCCC[C@H](O)CC(=O)CCc1ccc(O)c(OC)c1 [[6]-Gingerol] (10 µM)
inactive: ABL1 = 0 | AKT1 = 0 | ALK 0 | ARAF 0 | AURKA 0 | AURKB 0 | AURKC 0 | BLK 0 | BMX 0 | BRAF 0 | BRAF_V600E 0 | BTK 0 | CAMK2A 0 | CAMK2G 0 | CDK10 = 0 | CDK2 = 0 | CDK3 = 0 | CDK4 = 0 | CDK5 = 0 | CDK6 = 0

COc1cc(C=C(C#N)C(N)=O)cc(CSc2nc3ccccc3s2)c1O (10 µM)
inactive: ABL1 = 0 | AKT1 = 0 | ALK 0 | ARAF 0 | AURKA 0 | AURKB 0 | AURKC 0 | BLK 0 | BMX 0 | BRAF 0 | BRAF_V600E 0 | BTK 0 | CAMK2A 0 | CAMK2G 0 | CDK10 = 0 | CDK2 = 0 | CDK3 = 0 | CDK4 = 0 | CDK5 = 0 | CDK6 = 0

O=c1oc2c(C3OCCCO3)c(O)ccc2c2c1CNCC2 (10 µM)
inactive: ABL1 = 0 | AKT1 = 0 | ALK 0 | ARAF 0 | AURKA 0 | AURKB 0 | AURKC 0 | BLK 0 | BMX 0 | BRAF 0 | BRAF_V600E 0 | BTK 0 | CAMK2A 0 | CAMK2G 0 | CDK10 = 0 | CDK2 = 0 | CDK3 = 0 | CDK4 = 0 | CDK5 = 0 | CDK6 = 0

CCN1C(=O)N(c2c(F)c(OC)cc(OC)c2F)Cc2cnc3[nH]c(CN4CCOCC4)cc3c21 [Pemigatinib] (10 µM)
inactive: ABL1 = 0 | AKT1 = 0 | ALK 0 | ARAF 0 | AURKA 0 | AURKB 0 | AURKC 0 | BLK 0 | BMX 0 | BRAF 0 | BRAF_V600E 0 | BTK 0 | CAMK2A 0 | CAMK2G 0 | CDK10 = 0 | CDK2 = 0 | CDK3 = 0 | CDK4 = 0 | CDK5 = 0 | CDK6 = 0

CN1CCN(C(=O)c2ccc(-c3ccc4c(C=O)c(O)ccc4c3)s2)CC1 (2.5 µM)
inactive: ABL1 = 0 | AKT1 = 0 | ALK 0 | ARAF 0 | AURKA 0 | AURKB 0 | AURKC 0 | BLK 0 | BMX 0 | BRAF 0 | BRAF_V600E 0 | BTK 0 | CAMK2A 0 | CAMK2G 0 | CDK10 = 0 | CDK2 = 0 | CDK3 = 0 | CDK4 = 0 | CDK5 = 0 | CDK6 = 0

CC1(C)CC=C(c2nc(C3CC(C)(C)OC(C)(C)C3)ccc2NC(=O)c2nc(C#N)c[nH]2)CC1 [Edicotinib] (2.5 µM)
inactive: ABL1 = 0 | AKT1 = 0 | ALK 0 | ARAF 0 | AURKA 0 | AURKB 0 | AURKC 0 | BLK 0 | BMX 0 | BRAF 0 | BRAF_V600E 0 | BTK 0 | CAMK2A 0 | CAMK2G 0 | CDK10 = 0 | CDK2 = 0 | CDK3 = 0 | CDK4 = 0 | CDK5 = 0 | CDK6 = 0

Some of these compounds in order of SMILES length, high to low:
CC1(C)CC=C(c2nc(C3CC(C)(C)OC(C)(C)C3)ccc2NC(=O)c2nc(C#N)c[nH]2)CC1 [Edicotinib] (2.5 µM)
inactive: ABL1 = 0 | AKT1 = 0 | ALK 0 | ARAF 0 | AURKA 0 | AURKB 0 | AURKC 0 | BLK 0 | BMX 0 | BRAF 0 | BRAF_V600E 0 | BTK 0 | CAMK2A 0 | CAMK2G 0 | CDK10 = 0 | CDK2 = 0 | CDK3 = 0 | CDK4 = 0 | CDK5 = 0 | CDK6 = 0

COc1cc(C=C(C#N)C(N)=O)cc(CSc2nc3ccccc3s2)c1O (10 µM)
inactive: ABL1 = 0 | AKT1 = 0 | ALK 0 | ARAF 0 | AURKA 0 | AURKB 0 | AURKC 0 | BLK 0 | BMX 0 | BRAF 0 | BRAF_V600E 0 | BTK 0 | CAMK2A 0 | CAMK2G 0 | CDK10 = 0 | CDK2 = 0 | CDK3 = 0 | CDK4 = 0 | CDK5 = 0 | CDK6 = 0

O=c1oc2c(C3OCCCO3)c(O)ccc2c2c1CNCC2 (10 µM)
inactive: ABL1 = 0 | AKT1 = 0 | ALK 0 | ARAF 0 | AURKA 0 | AURKB 0 | AURKC 0 | BLK 0 | BMX 0 | BRAF 0 | BRAF_V600E 0 | BTK 0 | CAMK2A 0 | CAMK2G 0 | CDK10 = 0 | CDK2 = 0 | CDK3 = 0 | CDK4 = 0 | CDK5 = 0 | CDK6 = 0

Later entries:

CNC(=O)c1cccc(-c2ccc3c(N4CCOC[C@@H]4C)nc(N4CCOC[C@@H]4C)nc3n2)c1 [Vistusertib] (2.5 µM)
active: ABL1 = 1
inactive: AKT1 = 0 | ALK 0 | ARAF 0 | AURKA 0 | AURKB 0 | AURKC 0 | BLK 0 | BMX 0 | BRAF 0 | BRAF_V600E 0 | BTK 0 | CAMK2A 0 | CAMK2G 0 | CDK10 = 0 | CDK2 = 0 | CDK3 = 0 | CDK4 = 0 | CDK5 = 0 | CDK6 = 0

CC(C)=CC/C=C(\C)[C@H]1CC[C@]2(C)[C@@H]1[C@H](O)C[C@@H]1[C@@]3(C)CC[C@H](O[C@@H]4O[C@H](CO)[C@@H](O)[C@H](O)[C@H]4O[C@@H]4O[C@H](CO)[C@@H](O)[C@H](O)[C@H]4O)C(C)(C)[C@@H]3CC[C@]12C [Ginsenoside Rg5] (10 µM)
inactive: ABL1 = 0 | AKT1 = 0 | ALK 0 | ARAF 0 | AURKA 0 | AURKB 0 | AURKC 0 | BLK 0 | BMX 0 | BRAF 0 | BRAF_V600E 0 | BTK 0 | CAMK2A 0 | CAMK2G 0 | CDK10 = 0 | CDK2 = 0 | CDK3 = 0 | CDK4 = 0 | CDK5 = 0 | CDK6 = 0

COCCNCCc1cccc(Nc2ncc3c(n2)-c2ccccc2[C@H](c2ccccc2F)C3)c1 [Derazantinib] (2.5 µM)
inactive: ABL1 = 0 | AKT1 = 0 | ALK 0 | ARAF 0 | AURKA 0 | AURKB 0 | AURKC 0 | BLK 0 | BMX 0 | BRAF 0 | BRAF_V600E 0 | BTK 0 | CAMK2A 0 | CAMK2G 0 | CDK10 = 0 | CDK2 = 0 | CDK3 = 0 | CDK4 = 0 | CDK5 = 0 | CDK6 = 0

Cc1cccc(Cn2nc(C3CC3)c3c(NC(=O)c4cnc5cc(OCCN6CCN(C)CC6)ccn45)cccc32)n1 (10 µM)
inactive: ABL1 = 0 | AKT1 = 0 | ALK 0 | ARAF 0 | AURKA 0 | AURKB 0 | AURKC 0 | BLK 0 | BMX 0 | BRAF 0 | BRAF_V600E 0 | BTK 0 | CAMK2A 0 | CAMK2G 0 | CDK10 = 0 | CDK2 = 0 | CDK3 = 0 | CDK4 = 0 | CDK5 = 0 | CDK6 = 0
